The results in this text go back to PMC12663635.

The chains behind the UniProt entries cited, without tags or fusion partners. Where a name states a change or a piece, a line headed by the entry shows the natural chain unless it says otherwise. Residues count along the entry.
UniProt A1XBS5: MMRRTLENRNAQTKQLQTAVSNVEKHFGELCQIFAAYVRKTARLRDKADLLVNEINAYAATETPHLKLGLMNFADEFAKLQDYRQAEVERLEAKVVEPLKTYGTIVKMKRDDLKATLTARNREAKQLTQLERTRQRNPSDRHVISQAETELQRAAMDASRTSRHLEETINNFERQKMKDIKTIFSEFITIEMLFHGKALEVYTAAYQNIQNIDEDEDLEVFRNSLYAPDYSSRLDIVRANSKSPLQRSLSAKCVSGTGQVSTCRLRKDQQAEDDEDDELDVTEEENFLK
UniProt Q14573: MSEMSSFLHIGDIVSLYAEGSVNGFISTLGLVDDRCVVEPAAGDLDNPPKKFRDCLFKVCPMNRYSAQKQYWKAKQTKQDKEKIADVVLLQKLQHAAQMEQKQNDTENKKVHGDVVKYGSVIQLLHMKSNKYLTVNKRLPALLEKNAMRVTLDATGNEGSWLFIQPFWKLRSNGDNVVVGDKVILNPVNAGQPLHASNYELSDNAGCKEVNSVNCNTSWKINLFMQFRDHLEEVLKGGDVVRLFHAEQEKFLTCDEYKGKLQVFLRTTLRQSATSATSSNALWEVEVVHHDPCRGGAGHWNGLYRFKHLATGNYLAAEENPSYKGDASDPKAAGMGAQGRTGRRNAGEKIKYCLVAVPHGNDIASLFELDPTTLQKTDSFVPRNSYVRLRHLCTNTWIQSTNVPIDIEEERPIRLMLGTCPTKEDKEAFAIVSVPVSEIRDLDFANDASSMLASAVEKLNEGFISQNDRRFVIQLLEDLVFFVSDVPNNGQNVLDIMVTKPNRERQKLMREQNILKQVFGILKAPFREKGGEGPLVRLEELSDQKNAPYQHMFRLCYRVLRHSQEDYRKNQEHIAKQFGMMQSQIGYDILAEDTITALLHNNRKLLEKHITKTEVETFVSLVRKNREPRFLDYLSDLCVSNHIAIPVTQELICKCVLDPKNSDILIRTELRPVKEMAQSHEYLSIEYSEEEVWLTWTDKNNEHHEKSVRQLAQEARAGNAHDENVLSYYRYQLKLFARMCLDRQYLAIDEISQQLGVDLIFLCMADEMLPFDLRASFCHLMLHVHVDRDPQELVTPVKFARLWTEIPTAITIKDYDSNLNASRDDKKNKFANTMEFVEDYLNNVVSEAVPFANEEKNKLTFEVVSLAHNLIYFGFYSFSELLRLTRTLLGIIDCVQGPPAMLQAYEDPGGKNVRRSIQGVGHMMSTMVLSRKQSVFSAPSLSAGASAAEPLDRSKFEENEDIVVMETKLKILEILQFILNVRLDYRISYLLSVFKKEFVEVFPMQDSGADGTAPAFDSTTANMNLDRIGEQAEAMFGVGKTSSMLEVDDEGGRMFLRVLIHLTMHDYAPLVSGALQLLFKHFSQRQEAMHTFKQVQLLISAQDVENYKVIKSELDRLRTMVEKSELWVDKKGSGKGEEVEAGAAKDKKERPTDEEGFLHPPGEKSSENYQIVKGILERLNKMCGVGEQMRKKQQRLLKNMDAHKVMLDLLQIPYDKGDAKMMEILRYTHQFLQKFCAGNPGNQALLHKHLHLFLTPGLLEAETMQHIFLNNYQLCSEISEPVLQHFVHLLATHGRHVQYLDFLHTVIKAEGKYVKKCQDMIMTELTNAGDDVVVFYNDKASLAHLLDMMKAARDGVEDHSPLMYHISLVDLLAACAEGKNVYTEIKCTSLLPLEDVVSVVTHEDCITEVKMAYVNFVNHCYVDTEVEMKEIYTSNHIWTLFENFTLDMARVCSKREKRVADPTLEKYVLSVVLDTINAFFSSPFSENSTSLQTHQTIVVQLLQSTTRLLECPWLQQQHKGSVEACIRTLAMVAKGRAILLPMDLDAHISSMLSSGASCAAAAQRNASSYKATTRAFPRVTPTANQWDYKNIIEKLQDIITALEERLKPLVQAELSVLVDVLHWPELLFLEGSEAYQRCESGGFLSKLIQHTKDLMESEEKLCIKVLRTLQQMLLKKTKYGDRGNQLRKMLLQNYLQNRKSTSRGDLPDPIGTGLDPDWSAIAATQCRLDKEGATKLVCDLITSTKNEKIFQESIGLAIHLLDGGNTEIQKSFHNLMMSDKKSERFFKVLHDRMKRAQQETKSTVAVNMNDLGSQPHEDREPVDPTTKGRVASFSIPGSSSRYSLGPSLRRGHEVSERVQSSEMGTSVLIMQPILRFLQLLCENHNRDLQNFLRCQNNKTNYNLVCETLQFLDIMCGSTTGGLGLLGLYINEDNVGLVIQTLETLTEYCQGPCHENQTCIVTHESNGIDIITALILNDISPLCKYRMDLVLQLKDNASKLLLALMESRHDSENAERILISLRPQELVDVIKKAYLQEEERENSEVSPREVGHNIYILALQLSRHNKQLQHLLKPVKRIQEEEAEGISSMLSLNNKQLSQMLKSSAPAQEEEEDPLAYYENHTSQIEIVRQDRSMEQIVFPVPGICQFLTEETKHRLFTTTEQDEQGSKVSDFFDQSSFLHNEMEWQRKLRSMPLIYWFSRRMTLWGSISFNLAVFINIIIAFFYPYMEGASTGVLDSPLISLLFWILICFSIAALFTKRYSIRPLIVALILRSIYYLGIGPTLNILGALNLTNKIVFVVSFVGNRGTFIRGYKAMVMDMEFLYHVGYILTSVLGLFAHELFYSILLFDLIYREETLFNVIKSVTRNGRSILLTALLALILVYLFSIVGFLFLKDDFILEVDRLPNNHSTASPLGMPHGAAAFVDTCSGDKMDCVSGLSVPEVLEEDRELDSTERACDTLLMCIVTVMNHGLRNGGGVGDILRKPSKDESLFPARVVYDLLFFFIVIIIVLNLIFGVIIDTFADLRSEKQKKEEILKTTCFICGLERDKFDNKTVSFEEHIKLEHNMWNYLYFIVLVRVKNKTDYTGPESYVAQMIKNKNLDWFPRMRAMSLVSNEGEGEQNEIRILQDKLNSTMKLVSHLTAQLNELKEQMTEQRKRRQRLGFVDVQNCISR
UniProt Q9UBS4, residues 23-358: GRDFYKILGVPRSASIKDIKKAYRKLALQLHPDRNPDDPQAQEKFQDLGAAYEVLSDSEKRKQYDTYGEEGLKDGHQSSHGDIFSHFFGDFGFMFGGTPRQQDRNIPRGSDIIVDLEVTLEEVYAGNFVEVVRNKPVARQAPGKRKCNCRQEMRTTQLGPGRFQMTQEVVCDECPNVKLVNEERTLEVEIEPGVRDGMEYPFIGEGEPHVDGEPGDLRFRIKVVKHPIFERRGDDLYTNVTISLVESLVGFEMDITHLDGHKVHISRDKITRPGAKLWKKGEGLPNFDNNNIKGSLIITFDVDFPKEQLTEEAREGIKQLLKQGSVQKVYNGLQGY
UniProt Q9NZJ5, residues 30-1116: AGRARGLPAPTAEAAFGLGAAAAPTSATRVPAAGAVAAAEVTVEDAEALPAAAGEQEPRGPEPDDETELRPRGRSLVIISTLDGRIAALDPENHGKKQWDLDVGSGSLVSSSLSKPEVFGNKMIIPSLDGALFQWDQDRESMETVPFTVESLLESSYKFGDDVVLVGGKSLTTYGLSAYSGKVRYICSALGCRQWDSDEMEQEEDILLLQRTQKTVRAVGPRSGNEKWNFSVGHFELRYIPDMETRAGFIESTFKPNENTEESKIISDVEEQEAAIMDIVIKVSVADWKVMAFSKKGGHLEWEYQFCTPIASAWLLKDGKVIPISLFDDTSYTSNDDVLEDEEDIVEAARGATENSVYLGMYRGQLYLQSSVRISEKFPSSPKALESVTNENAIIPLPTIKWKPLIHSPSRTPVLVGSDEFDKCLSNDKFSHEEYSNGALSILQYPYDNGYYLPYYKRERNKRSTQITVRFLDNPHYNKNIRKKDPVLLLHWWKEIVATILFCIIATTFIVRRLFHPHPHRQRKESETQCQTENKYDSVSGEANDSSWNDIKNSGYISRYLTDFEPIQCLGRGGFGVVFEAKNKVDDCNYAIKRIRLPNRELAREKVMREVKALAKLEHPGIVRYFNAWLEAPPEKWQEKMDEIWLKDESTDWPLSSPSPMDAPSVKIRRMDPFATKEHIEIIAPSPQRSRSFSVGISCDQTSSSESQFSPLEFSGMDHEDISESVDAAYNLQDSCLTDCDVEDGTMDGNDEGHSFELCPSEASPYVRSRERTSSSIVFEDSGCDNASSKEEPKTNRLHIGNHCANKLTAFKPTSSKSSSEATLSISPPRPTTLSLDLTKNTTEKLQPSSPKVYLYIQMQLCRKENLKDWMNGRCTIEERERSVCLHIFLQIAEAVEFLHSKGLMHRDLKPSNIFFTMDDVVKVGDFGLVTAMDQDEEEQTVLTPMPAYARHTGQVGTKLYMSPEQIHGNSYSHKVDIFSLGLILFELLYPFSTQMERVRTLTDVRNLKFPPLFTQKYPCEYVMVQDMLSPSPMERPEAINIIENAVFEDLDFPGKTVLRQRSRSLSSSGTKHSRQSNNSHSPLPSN
UniProt Q13586, residues 23-685: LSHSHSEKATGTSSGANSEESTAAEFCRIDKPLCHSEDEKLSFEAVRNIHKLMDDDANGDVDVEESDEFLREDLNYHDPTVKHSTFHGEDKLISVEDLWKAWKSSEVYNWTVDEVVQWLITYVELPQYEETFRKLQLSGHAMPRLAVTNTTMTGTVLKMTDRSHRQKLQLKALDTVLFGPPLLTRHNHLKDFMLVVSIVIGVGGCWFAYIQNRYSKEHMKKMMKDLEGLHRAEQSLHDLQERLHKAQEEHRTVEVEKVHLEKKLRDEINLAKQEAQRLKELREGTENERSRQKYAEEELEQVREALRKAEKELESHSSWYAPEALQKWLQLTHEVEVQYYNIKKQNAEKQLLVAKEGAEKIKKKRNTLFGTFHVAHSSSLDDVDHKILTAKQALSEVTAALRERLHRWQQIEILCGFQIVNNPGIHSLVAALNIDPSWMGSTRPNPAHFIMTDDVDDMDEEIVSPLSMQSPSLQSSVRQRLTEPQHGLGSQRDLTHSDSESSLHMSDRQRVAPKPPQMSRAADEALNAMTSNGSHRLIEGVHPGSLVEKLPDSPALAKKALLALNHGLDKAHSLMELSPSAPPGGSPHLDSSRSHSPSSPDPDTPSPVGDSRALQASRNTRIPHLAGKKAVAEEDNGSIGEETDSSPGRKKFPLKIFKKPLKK

Results are given in words; binding and its absence hold for the method and conditions named. In cells and extracts the contact can be indirect. These calls come from enrichment with a bait or labelling near it, and not all partners need be listed. A no says only that the protein was not detected with the bait. Tags and fused reporters may be left off the sequences shown.

The target in this assay is T1, full-length PC2 fused with FLAG-BirA* (PC2-BF / FB-PC2 BioID baits, datasets merged) (human) (UniProt Q13563).
T1 sequence: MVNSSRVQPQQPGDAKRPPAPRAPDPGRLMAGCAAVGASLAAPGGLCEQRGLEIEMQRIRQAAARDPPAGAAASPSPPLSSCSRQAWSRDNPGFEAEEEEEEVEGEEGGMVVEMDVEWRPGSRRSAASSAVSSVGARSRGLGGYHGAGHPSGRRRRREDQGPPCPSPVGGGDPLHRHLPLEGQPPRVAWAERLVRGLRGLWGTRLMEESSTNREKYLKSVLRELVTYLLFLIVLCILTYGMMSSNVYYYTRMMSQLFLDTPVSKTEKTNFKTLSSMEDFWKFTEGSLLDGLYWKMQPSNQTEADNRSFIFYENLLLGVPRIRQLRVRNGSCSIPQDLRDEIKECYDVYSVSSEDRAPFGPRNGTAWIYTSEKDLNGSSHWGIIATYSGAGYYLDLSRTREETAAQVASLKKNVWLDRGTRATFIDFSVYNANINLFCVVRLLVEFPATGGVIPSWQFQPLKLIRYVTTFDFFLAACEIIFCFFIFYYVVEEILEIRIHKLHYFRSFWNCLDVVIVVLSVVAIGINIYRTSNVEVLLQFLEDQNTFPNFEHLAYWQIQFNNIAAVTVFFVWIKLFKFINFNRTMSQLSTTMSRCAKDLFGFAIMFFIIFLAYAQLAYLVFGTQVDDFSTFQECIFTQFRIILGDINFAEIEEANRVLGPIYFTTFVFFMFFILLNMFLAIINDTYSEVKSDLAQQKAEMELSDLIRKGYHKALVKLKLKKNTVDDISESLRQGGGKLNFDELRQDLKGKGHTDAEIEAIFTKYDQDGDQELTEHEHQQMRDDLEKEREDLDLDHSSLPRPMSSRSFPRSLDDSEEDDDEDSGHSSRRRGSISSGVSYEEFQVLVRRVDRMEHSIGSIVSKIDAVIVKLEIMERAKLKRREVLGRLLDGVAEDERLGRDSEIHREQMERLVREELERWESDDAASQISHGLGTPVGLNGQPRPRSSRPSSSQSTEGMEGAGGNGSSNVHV
Kind of assay: proximity labelling; BioID in Flp-In HEK293 T-REx stable lines: bait induced with 1 ug/ml tetracycline and 50 uM biotin for 24 h, cycling cells or cells kept 48 h in 0.5% serum (ciliation-induced); streptavidin capture, LC-MS/MS; SAINTexpress, BFDR <=1% against FlagBirA* controls, PC1-BF also filtered against CD16.7-BF.

Consider CIBAR1 (from UniProt A1XBS5), for which the binding entry is on record as “binds”.
For CBY1 (from UniProt Q9Y3M2 1-126), the binding entry was “binds”.
The same measure for ITPR3 (from UniProt Q14573 1-2671): “binds”.
Consider DNAJB11 (from UniProt Q9UBS4 23-358), for which the binding result is reported as “binds”.
With EIF2KA3 (from UniProt Q9NZJ5 30-1116), the binding result is reported as “binds”.
The same measure for STIM1 (from UniProt Q13586 23-685): “binds”.

B1: ALG5 (protein, UniProt Q9Y673 1-324)
chain: MAPLLLQLAVLGAALAAAALVLISIVAFTTATKMPALHRHEEEKFFLNAKGQKETLPSIWDSPTKQLSVVVPSYNEEKRLPVMMDEALSYLEKRQKRDPAFTYEVIVVDDGSKDQTSKVAFKYCQKYGSDKVRVITLVKNRGKGGAIRMGIFSSRGEKILMADADGATKFPDVEKLEKGLNDLQPWPNQMAIACGSRAHLEKESIAQRSYFRTLLMYGFHFLVWFLCVKGIRDTQCGFKLFTREAASRTFSSLHVERWAFDVELLYIAQFFKIPIAEIAVNWTEIEGSKLVPFWSWLQMGKDLLFIRLRYLTGAWRLEQTRKMN
With B1, the binding entry is “binds”.

B2: TMEM38B (protein, UniProt Q9NVV0 1-291)
chain: MDSPWDELALAFSRTSMFPFFDIAHYLVSVMAVKRQPGAAALAWKNPISSWFTAMLHCFGGGILSCLLLAEPPLKFLANHTNILLASSIWYITFFCPHDLVSQGYSYLPVQLLASGMKEVTRTWKIVGGVTHANSYYKNGWIVMIAIGWARGAGGTIITNFERLVKGDWKPEGDEWLKMSYPAKVTLLGSVIFTFQHTQHLAISKHNLMFLYTIFIVATKITMMTTQTSTMTFAPFEDTLSWMLFGWQQPFSSCEKKSEAKSPSNGVGSLASKPVDVASDNVKKKHTKKNE
B2: the binding entry is given as “binds”.

B3: FNIP2 (protein, UniProt Q9P278 1-1114)
chain: MAPTLLQKLFNKRGSSGSSAAASAQGRAPKEGPAFSWSCSEFDLNEIRLIVYQDCDRRGRQVLFDSKAVQKIEEVTAQKTEDVPIKISAKCCQGSSSVSSSSSSSISSHSSSGGSSHHAKEQLPKYQYTRPASDVNMLGEMMFGSVAMSYKGSTLKIHYIRSPPQLMISKVFSARMGSFCGSTNNLQDSFEYINQDPNLGKLNTNQNSLGPCRTGSNLAHSTPVDMPSRGQNEDRDSGIARSASLSSLLITPFPSPSSSTSSSSSYQRRWLRSQTTSLENGIIPRRSTDETFSLAEETCSSNPAMVRRKKIAISIIFSLCEKEEAQRNFQDFFFSHFPLFESHMNRLKSAIEKAMISCRKIAESSLRVQFYVSRLMEALGEFRGTIWNLYSVPRIAEPVWLTMMSGTLEKNQLCQRFLKEFTLLIEQINKNQFFAALLTAVLTYHLAWVPTVMPVDHPPIKAFSEKRTSQSVNMLAKTHPYNPLWAQLGDLYGAIGSPVRLTRTVVVGKQKDLVQRILYVLTYFLRCSELQENQLTWSGNHGEGDQVLNGSKIITALEKGEVEESEYVVITVRNEPALVPPILPPTAAERHNPWPTGFPECPEGTDSRDLGLKPDKEANRRPEQGSEACSAGCLGPASDASWKPQNAFCGDEKNKEAPQDGSSRLPSCEVLGAGMKMDQQAVCELLKVEMPTRLPDRSVAWPCPDRHLREKPSLEKVTFQIGSFASPESDFESRMKKMEERVKACGPSLEASEAADVAQDPQVSRSPFKPGFQENVCCPQNRLSEGDEGESDKGFAEDRGSRNDMAADIAGQLSHAADLGTASHGAGGTGGRRLEATRGLYVKAAEGPVLEPVAPRCVQRGPGLVAGANIPCGDDNKKANFRTEGDIPRNESSDSALGDSDDEACASAMLDLGHGGDRTGGSLEVELPLPRSQSISTQNVRNFGRSLLAGYCPTYMPDLVLHGTGSDEKLKQCLVADLVHTVHHPVLDEPIAEAVCIIADTDKWSVQVATSQRKVTDNMKLGQDVLVSSQVSSLLQSILQLYKLHLPADFCIMHLEDRLQEMYLKSKMLSEYLRGHTRVHVKELGVVLGIESNDLPLLTAIASTHSPYVAQILL
Take B3: the binding result is recorded as “no binding”.

B4: NNT (protein, UniProt Q13423 44-1086)
chain: CKAPVKPGIPYKQLTVGVPKEIFQNEKRVALSPAGVQNLVKQGFNVVVESGAGEASKFSDDHYRVAGAQIQGAKEVLASDLVVKVRAPMVNPTLGVHEADLLKTSGTLISFIYPAQNPELLNKLSQRKTTVLAMDQVPRVTIAQGYDALSSMANIAGYKAVVLAANHFGRFFTGQITAAGKVPPAKILIVGGGVAGLASAGAAKSMGAIVRGFDTRAAALEQFKSLGAEPLEVDLKESGEGQGGYAKEMSKEFIEAEMKLFAQQCKEVDILISTALIPGKKAPVLFNKEMIESMKEGSVVVDLAAEAGGNFETTKPGELYIHKGITHIGYTDLPSRMATQASTLYSNNITKLLKAISPDKDNFYFDVKDDFDFGTMGHVIRGTVVMKDGKVIFPAPTPKNIPQGAPVKQKTVAELEAEKAATITPFRKTMSTASAYTAGLTGILGLGIAAPNLAFSQMVTTFGLAGIVGYHTVWGVTPALHSPLMSVTNAISGLTAVGGLALMGGHLYPSTTSQGLAALAAFISSVNIAGGFLVTQRMLDMFKRPTDPPEYNYLYLLPAGTFVGGYLAALYSGYNIEQIMYLGSGLCCVGALAGLSTQGTARLGNALGMIGVAGGLAATLGVLKPGPELLAQMSGAMALGGTIGLTIAKRIQISDLPQLVAAFHSLVGLAAVLTCIAEYIIEYPHFATDAAANLTKIVAYLGTYIGGVTFSGSLIAYGKLQGLLKSAPLLLPGRHLLNAGLLAASVGGIIPFMVDPSFTTGITCLGSVSALSAVMGVTLTAAIGGADMPVVITVLNSYSGWALCAEGFLLNNNLLTIVGALIGSSGAILSYIMCVAMNRSLANVILGGYGTTSTAGGKPMEISGTHTEINLDNAIDMIREANSIIITPGYGLCAAKAQYPIADLVKMLTEQGKKVRFGIHPVAGRMPGQLNVLLAEAGVPYDIVLEMDEINHDFPDTDLVLVIGANDTVNSAAQEDPNSIIAGMPVLEVWKSKQVIVMKRSLGVGYAAVDNPIFYKPNTAMLLGDAKKTCDALQAKVRESYQK
For B4, the binding result is “binds”.

B5: TBL2 (protein, UniProt Q9Y4P3 1-447)
chain: MELSQMSELMGLSVLLGLLALMATAAVARGWLRAGEERSGRPACQKANGFPPDKSSGSKKQKQYQRIRKEKPQQHNFTHRLLAAALKSHSGNISCMDFSSNGKYLATCADDRTIRIWSTKDFLQREHRSMRANVELDHATLVRFSPDCRAFIVWLANGDTLRVFKMTKREDGGYTFTATPEDFPKKHKAPVIDIGIANTGKFIMTASSDTTVLIWSLKGQVLSTINTNQMNNTHAAVSPCGRFVASCGFTPDVKVWEVCFGKKGEFQEVVRAFELKGHSAAVHSFAFSNDSRRMASVSKDGTWKLWDTDVEYKKKQDPYLLKTGRFEEAAGAAPCRLALSPNAQVLALASGSSIHLYNTRRGEKEECFERVHGECIANLSFDITGRFLASCGDRAVRLFHNTPGHRAMVEEMQGHLKRASNESTRQRLQQQLTQAQETLKSLGALKK
Turning to B5, the binding result was “binds”.

B6: LRRC49 (protein, UniProt Q8IUZ0 1-686)
chain: MIPGKYRSVSGRAANNVNCGLHLVIQTSSLPEKNKVEFKLNKDTSSFPGRLLQHDLERNYSSRQGDHINLVSSSLSSFPILQRSSEEKILYSDRLSLERQKLTVCPIINGEDHLRLLNFQHNFITRIQNISNLQKLISLDLYDNQIEEISGLSTLRCLRVLLLGKNRIKKISNLENLKSLDVLDLHGNQITKIENINHLCELRVLNLARNFLSHVDNLNGLDSLTELNLRHNQITFVRDVDNLPCLQHLFLSFNNISSFDSVSCLADSSSLSDITFDGNPIAQESWYKHTVLQNMMQLRQLDMKRITEEERRMASVLAKKEEEKKRESHKQSLLKEKKRLTINNVARQWDLQQQRVANIATNEDRKDSDSPQDPCQIDGSTLSAFPEETGPLDSGLNNALQGLSVIDTYLVEVDGDTLSLYGSGALESLDRNWSVQTAGMITTVSFTFIEFDEIVQVLPKLKIKFPNSLHLKFKETNLVMLQQFNALAQLRRIDQLTIDPQGNPVVNFTLWKYYVLFRLSHFSMQKINGTEVTQNDMIMAERLFGILAHVASSELPQYRLISILGDARKKQFRYLLESKGKKPGIINEENNDSKRLVGENTNRATLNYTTRDFYNEKLEEIKEKKKFCKTYIEDLVKEATEINMKNEALQKLWPQMFIELVRDAVIEIRNKNSYMKLCLQQITDQK
Take B6: the binding result is “binds”.
